# Reference: PubChem BioAssay AID2685 (National Center for Advancing Translational Sciences (NCATS), 2010)
# This is one part of the list. Further columns of the screen follow, without active or inactive calls. Compounds called inactive in the main read-out are mostly missing here. Words in brackets tell the shape of the fitted curve; partial curves, single points and poor fits give uncertain potencies.
# Assay: qHTS Assay for Lipid Storage Modulators in Drosophila S3 Cells;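 on cell number change: cells counted by Cell Tracker Red CMTPX staining in the red channel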
# Details: BODIPY lipid droplet fluorescence, 18-24 h; for cell number change: measured here: cell count max response, cells fed with added oleic acid
# In short: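 Drosophila S3 cells got compounds at several concentrations plus oleic acid (400 uM solution). Laser-scanning cytometry with 488 nm excitation read lipid droplets at 500-530 nm and cells at 575-640 nm. Percent activity was relative to 20 uM Triacsin C.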
# [1] = measured here: cell number channel AC50, cells fed with added oleic acid
# [2] = measured here: lipid fluorescence (Fed channel) AC50, cells fed with added oleic acid
smiles,measurement,setting,value
NS(=O)(=O)c1ccc(CCNS(=O)(=O)c2cccs2)cc1,cell number change,,31.6%
same,AC50,[1],"0.184 µM [rising, full curve, poor fit]"
same,AC50,[2],"0.82 µM [rising, full curve, poor fit]"
Cc1nc2sc3c(c2c(=O)n1/N=C/c1cccnc1)CCCC3,cell number change,,-31.4%
same,AC50,[1],"32.6 µM [falling, single point]"
same,AC50,[2],"29.1 µM [falling, single point]"
CC(C)C(=O)Nc1ccc(NC(=O)c2ccc(COc3ccccc3)cc2)cc1,cell number change,,15%
same,AC50,[2],"16.4 µM [rising, partial curve]"
O=C(Cc1ccccc1Cl)Nc1nc2ccccc2[nH]1,cell number change,,-18.3%
same,AC50,[2],"0.00461 µM [falling, full curve, poor fit]"
COc1cc(C2NC(=O)NC(C)=C2C(=O)OCC2CCCCC2)cc(Cl)c1O (centres undefined),cell number change,,-13.9%
same,AC50,[2],"0.731 µM [falling, full curve]"
CCC(=O)NC(Nc1sc2c(c1C(=O)OC)CCCC2)(C(F)(F)F)C(F)(F)F,cell number change,,-29.7%
same,AC50,[2],"29.1 µM [falling, single point]"
CCOC(=O)c1oc2cc(O)ccc2c(=O)c1-c1csc(C)n1,cell number change,,-8.38%
same,AC50,[1],"3.26 µM [falling, single point]"
Cc1ccc2c(c1)C(=O)OC1(O)C3C4C=CC(C4)C3C(=O)N21 (centres undefined),cell number change,,6.45%
Cc1occc1C(=O)NCCCCNC(=O)c1ccoc1C,cell number change,,18.5%
CC1(c2ccccc2)NC(=O)N(N)C1=O (centres undefined),cell number change,,-15.2%
same,AC50,[1],"6.51 µM [rising, partial curve, poor fit]"
O=C(COc1ccc2ccccc2c1)NNC(=O)Cc1cccc2ccccc12,cell number change,,-10.7%
same,AC50,[1],"0.00461 µM [falling, full curve, poor fit]"
same,AC50,[2],"2.91 µM [rising, single point]"
O=C(C#Cc1cccc([N+](=O)[O-])c1)c1ccccc1,cell number change,,-32.3%
same,AC50,[1],"0.13 µM [falling, full curve, poor fit]"
same,AC50,[2],"0.58 µM [falling, single point]"
O=c1[nH]c2cc3c(cc2cc1CN(Cc1nnnn1CC1CCCO1)C1CCCCC1)OCO3 (centres undefined),cell number change,,24.6%
O=C(/C=C/c1c(Cl)nc2ccccn12)N1CCN(c2ccc(F)cc2)CC1,AC50,[2],"0.116 µM [rising, partial curve, poor fit]"
CC(=O)Nc1ccc(S(=O)(=O)Oc2ccc(C(=S)N3CCCCC3)cc2)cc1,AC50,[2],"0.00517 µM [falling, full curve, poor fit]"
Cc1cccc(CC(=O)Nc2cc(C)c3c(=O)oc4ccccc4c3n2)c1,AC50,[2],"0.58 µM [rising, single point]"
CCc1cc2cccc(C)c2nc1SCC(=O)c1ccc(NC(C)=O)cc1,cell number change,,15.2%
same,AC50,[2],"0.231 µM [rising, full curve]"
COc1ccc(C2CCCN2C(=S)Nc2ccc(C)cc2Cl)cc1OC (centres undefined),cell number change,,35.8%
same,AC50,[1],"16.4 µM [rising, single point]"
same,AC50,[2],"32.6 µM [rising, single point]"
CN(C)c1ccc(/C=C/C(=O)c2ccc(C(C)(C)C)cc2)cc1[N+](=O)[O-],cell number change,,-60.5%
same,AC50,[1],"18.4 µM [falling, single point]"
Cc1cc(C)c(OCC(=O)OCC(=O)N2CCCc3ccccc32)c(C)c1,AC50,[1],"6.51 µM [falling, single point]"
same,AC50,[2],"10.3 µM [rising, partial curve]"
CC(C)NC(=O)COC(=O)c1ccc(Cl)c(S(=O)(=O)N2CCCC2)c1,cell number change,,-51.7%
same,AC50,[1],"2.59 µM [falling, partial curve, poor fit]"
same,AC50,[2],"25.9 µM [falling, partial curve]"
C=CCn1c(SCC(=O)Nc2ccc3c(c2)CCC3)nc2ccccc2c1=O,cell number change,,-8.87%
same,AC50,[2],"23.1 µM [falling, single point]"
CC(=O)Nc1ccc2c(c1)ncn2-c1ccc(C)cc1,cell number change,,-10.9%
same,AC50,[1],"6.51 µM [falling, single point]"
same,AC50,[2],"6.51 µM [falling, single point]"
Cc1ccc(S(=O)(=O)N2CCOCC2)cc1C(=O)Nc1ccccc1F,cell number change,,2.76%
same,AC50,[2],"29.1 µM [rising, single point]"
COc1ccc(Cl)cc1NC(=O)CN(C)C(=O)c1ccc(N2CCCCCC2)c([N+](=O)[O-])c1,cell number change,,-30.1%
same,AC50,[1],"2.06 µM [falling, full curve, poor fit]"
COCCNc1nc2c(c(=O)n(C)c(=O)n2C)n1Cc1cccc(C(F)(F)F)c1,cell number change,,-112%
same,AC50,[1],"6.51 µM [rising, single point]"
same,AC50,[2],"29.1 µM [falling, single point]"
CCOC(=O)c1c(C)oc2c1c(CN1CCN(CCO)CC1)c(O)c1ccccc12,cell number change,,-34.7%
same,AC50,[1],"18.4 µM [falling, single point]"
same,AC50,[2],"18.4 µM [falling, single point]"
CN(C)CCCNc1cn[nH]c(=O)c1Cl,cell number change,,-23%
same,AC50,[1],"0.651 µM [falling, full curve, poor fit]"
same,AC50,[2],"18.4 µM [falling, partial curve]"
Cc1ccc(CCN2C(=O)CCC2(C)C(=O)NCc2cccnc2)cc1 (centres undefined),cell number change,,1.19%
same,AC50,[2],"0.651 µM [falling, partial curve, poor fit]"
CCOC(=O)N1CCC(N2C(=O)c3ccccc3C2Nc2cc(C(=O)OC)cc(C(=O)OC)c2)CC1 (centres undefined),cell number change,,4.24%
Cc1nc2scc(C)n2c(=O)c1S(=O)(=O)N1CCN(c2ccc([N+](=O)[O-])cc2)CC1,cell number change,,15.8%
CCOCC(=O)Nc1ccccc1C(=O)O,cell number change,,-18.3%
same,AC50,[2],"32.6 µM [falling, single point]"
CC(=O)C1=C(O)C(=O)N(c2nccs2)C1c1ccccc1 (centres undefined),AC50,[2],"0.366 µM [falling, full curve]"
CC(=O)c1ccc(OC(=O)CN2C(=O)c3ccccc3C2=O)cc1,cell number change,,13.1%
same,AC50,[2],"0.116 µM [rising, full curve, poor fit]"
CCCCc1ccc(/C=C(\C#N)C(N)=S)s1,cell number change,,-30.8%
same,AC50,[1],"20.6 µM [falling, single point]"
same,AC50,[2],"14.6 µM [falling, partial curve, poor fit]"
COCCn1c(=N)c(S(=O)(=O)c2ccc(F)cc2)cc2c(=O)n3cccc(C)c3nc21,cell number change,,-16.7%
same,AC50,[1],"5.17 µM [falling, partial curve]"

# 3 successive records already listed, for reference:
smiles,measurement,setting,value
COc1ccc(C2CCCN2C(=S)Nc2ccc(C)cc2Cl)cc1OC (centres undefined),cell number change,,35.8%
same,AC50,[1],"16.4 µM [rising, single point]"
same,AC50,[2],"32.6 µM [rising, single point]"
